# Measured values from patent US20260224563A1, “CRYSTALLINE FORMS OF 6-(3-((5-CHLORO-2-METHOXYPYRIDINE)-3-SULFONAMIDO)-2,6-DIFLUOROPHENYL)-N-METHYLIMIDAZO[1,5-A]PYRAZINE-1-CARBOXAMIDE AND METHODS FOR USING THE SAME” (HIBERCELL, INC., priority 2023, published 2026).
# The name of at least one read-out is uncertain.
# Assay: Pharmacokinetics of HC-7366 in male and female beagle dogs following IV and oral administration of HC-7366-K (plasma and urine, LC-MS/MS)
# Assay type: in vivo, Beagle Dog
# Conditions: three animals
# Method: The objective of this study was to characterize the pharmacokinetics of HC-7366 in male and female beagle dogs following intravenous (IV) and oral (PO) administration of the potassium salt of the compound of formula (I), which may be referred to in this Example as HC-7366-K.
# The IV solution formulation of HC-7366-K contained “5% (v/v) DMSO and 95% (v/v) Captisol (20% w/v) in PBS (pH 7.4)”, and was administered […] dose at 0.5 mg free acid/kg.
# The PO suspension formulation of HC-7366-K is a suspension of Form III of the potassium salt of the compound of formula (I) (see Example 6) and contained “0.5% (w/v) methylcellulose (400 cp) in water”, and was administered orally at 1 mg free acid/kg, 10 mg free acid/kg, 50 mg free acid/kg, 150 mg free acid/kg, respectively.
# After dosing, blood samples were collected at various time points. Plasma and urine was harvested and analysed by LC-MS/MS to characterize the PK profiles of HC-7366.
# HC-7366-K was stored at room temperature. The compound used in this study was HC-7366-K. All doses, concentrations and supporting data are expressed in terms of free acid. The molecular weight conversion factor from HC-7366-K to free acid was 1.11.
# HC-7366-K was formulated as an IV solution at a target dose level of 0.5 mg/mL in “5% (v/v) DMSO and 95% (v/v) Captisol (20% w/v) in PBS (pH 7.4)”.
# HC-7366-K was formulated as a PO suspension of Form III of the potassium salt of the compound of formula (I) (see Example 6) at a target dose concentration of 0.25 mg/mL, 2.5 mg/mL, 12.5 mg/mL and 37.5 mg/mL in “0.5% (w/v) methylcellulose (aq.) (400 cp) in water” respectively.
# The dose was administered via intravenous and oral gavage at the target dose volume of 1, and 4 mL/kg, respectively. All animals had free access to water, were fasted overnight prior to dosing and fed approximately 2 hours after dosing. The IV dose and PO dose at 1 mg/kg were administered to the same dogs as a cross-over design. The PO dose was administered 10 days after the IV dose. The PO doses at 10, 50 and 150 mg/kg were administered to individual animals.
# Following IV administration, blood samples (ca 0.3 mL) were collected from the venepuncture of peripheral veins except the dosing vein. Blood samples were collected pre dose and at 0.083 h, […], 0.5 h, 1 h, 2 h, 4 h, 8 h, […], 30 h, and 48 h post dose.
# Following PO administration, blood samples (ca 0.3 mL) were collected from the venepuncture of peripheral veins. Blood samples were collected pre dose and at 0.25 h, 0.5 h, 1 h, 2 h, 4 h, 8 h, 24 h, 30 h, and 48 h post dose.
# Blood samples were collected into tubes containing K2EDTA as anticoagulant. The acceptable time ranges for blood collection are shown below. […]. Samples were stored in a freezer set to maintain a temperature at or below −80° C. prior to analysis. The residual blood cells were discarded.
# Urine samples were collected on cold packs into clean bottles and the cold packs were checked during the day and at each sampling interval. At the end of the collection interval, the volume of urine was recorded and then each sample was well mixed and maintained on wet ice throughout processing and then stored frozen at […]75±15° C. until analysis.
# The plasma and urine concentration of HC-7366 was determined by protein precipitation with acetonitrile followed by liquid chromatography with mass spectrometric detection (LC MS/MS). Sample preparation was conducted by adding 50 uL plasma or 50 uL urine to 200 uL of acetonitrile containing dexamethasone as an analytical internal standard. There was no formal validation data to support the assay.
# Calibration standards were prepared in male, female beagle dog plasma or urine using HC-7366 Free acid. Calibration standards were freshly prepared on the day of analysis.
# Parameters were estimated using Phoenix (WinNonlin) pharmacokinetic software version 6.1.0 using a non-compartmental approach consistent with IV and PO routes of administration. […]
smiles,measurement,setting,value
"CNC(=O)c1ncn2cc(-c3c(F)ccc(NS(=O)(=O)c4cc(Cl)cnc4OC)c3F)ncc12 [HC-7366-K, 6-(3-((5-chloro-2-methoxypyridine)-3-sulfonamido)-2,6-difluorophenyl)-N-methylimidazo[1,5-a]pyrazine-1-carboxamide]",time post dose at which Cmax was observed (Tmax),"female beagle dog, oral 50 mg/kg",120 to 240 min
same,time post dose at which Cmax was observed (Tmax),"female beagle dog, oral 150 mg/kg",30 to 60 min
same,time post dose at which Cmax was observed (Tmax),"female beagle dogs, oral 1 mg/kg",60 to 120 min
same,time post dose at which Cmax was observed (Tmax),"male beagle dog, oral 1 mg/kg",15 to 30 min
same,time post dose at which Cmax was observed (Tmax),"male beagle dog, oral 10 mg/kg",30 min
same,time post dose at which Cmax was observed (Tmax),"male beagle dog, oral 50 mg/kg",30 to 60 min
